Results on 62 compounds are retold here after publication PMC12670160, “A drug-repurposing screen of FDA- and EMA-approved drugs identifies two NF-κB inhibitors active against eumycetoma” (Journal of Antimicrobial Chemotherapy, 2025).

Counter-ions that a name gives are not always drawn. Like-named read-outs stand apart in the source and are kept apart here. Among all 5,300 compounds or so, about 130 (2.5%) showed an effect of 50% or more. Some of the results follow.

This experiment has as its system M. mycetomatis strain mm55. The note with it: 96 h, 2 µM.
Where [1] appears, read: primary screen, metabolic activity vs growth control, inhibitor.

As to `O=C(O)CCCCCCNC1c2ccccc2CCc2ccccc21` [ONC0001787, amineptine], the “% viability” value (m. mycetomatis hyphae) is given as 104.5%.
For the compound `OC12C3C4CC5C6C4C1C6C(C53)N2CCc1cccc(F)c1` (centres unmarked) [ONC0003587, tc1], the “% viability” value (m. mycetomatis hyphae) is 102%.
In the case of `Cn1cc(C(=O)C(=O)N[C@H]2CN3CCC2CC3)c2ccccc21` [ONC0002562, rs56812], the “% viability” value (m. mycetomatis hyphae) was 62.85%.
On the same count and under the same terms, for `CC[C@@H](c1cccc(O)c1)[C@@H](C)CN(C)C` [ONC0001216, tapentadol hydrochloride] the value was 104.5%.
The same measure, in the same setting: the value for `C[C@@H](N)[C@@H](O)c1ccccc1` [ONC0000448, 1s2rphenylpropanolamine hydrochloride] was 91.03%.
As to `C[C@@H](N)C(=O)N[C@@H](CO)C(=O)N[C@H](C(=O)N[C@H](C(=O)N[C@H](C(=O)N[C@@H](CC(N)=O)C(=O)N[C@@H](Cc1ccc(O)cc1)C(=O)N[C@H](C(N)=O)[C@@H](C)O)[C@@H](C)O)[C@@H](C)O)[C@@H](C)O` [ONC0001968, dapta], the “% viability” value under setting [1] stood at 96.08%.
For `C#Cc1cccc2c1c(C(=O)c1ccc(Cn3c(C)nc4cnccc43)c(F)c1)cn2C(=O)N(C)C` [ONC0001879, abt491], the “% viability” value (m. mycetomatis hyphae) was 73.37%.
On the same count and under the same terms, the value for `CCOC(=O)c1ccc(-c2ccc(OC(=O)N(C)Cc3cccc(-c4ccncc4)c3)cc2)cc1` [ONC0001242, wwl113] was 84.51%; that for `C=C(C)CN1CC[C@]23c4c5ccc(O)c4O[C@H]2c2[nH]c4ccccc4c2C[C@@]3(O)C1C5` [ONC0001783, sdm25n] was 88.61%.
`CC(C)C[C@H](NC(=O)[C@H](Cc1ccccc1)NC(=O)CNC(=O)[C@H](C)NC(=O)[C@@H](N)Cc1ccc(O)cc1)C(=O)O` [ONC0001965, dadle]: the “% viability” value (m. mycetomatis hyphae) was 88.98%.
Still for that read-out and setting: the value for `Cc1nccc2c1[nH]c1ccccc12` [ONC0000054, harmane] was 123.4%; that for `C[C@]12C=CC(=O)C=C1CC[C@@H]1[C@@H]2CC[C@]2(C)OC(=O)CC[C@@H]12` [ONC0001092, testolactone] was 64.15%; that for `NC(=S)N/N=C/c1coc2ccccc2c1=O` [ONC0001578, fpa124] was 55.38%.
Consider `O=C1CCCN1CC#CCN1CCCC1` [ONC0004217, oxotremorine sesquifumarate], for which the “% viability” value (m. mycetomatis hyphae) is recorded as 59.84%.
For `C[C@]12N[C@H](Cc3ccccc31)c1ccccc12` [ONC0001642, dizocilpine], the “% viability” value (m. mycetomatis hyphae) was found to be 59.2%.
On to `CC(C)n1cnc2c(C(=O)N[C@H]3CN4CCC3CC4)cc(Cl)cc21` [ONC0000102, rs16566], for which the “% viability” value (m. mycetomatis hyphae) is recorded as 74.83%.
The same measure, in the same setting: for `C[C@]12CCC(=O)C=C1CC[C@@H]1[C@@H]2[C@@H](O)C[C@]2(C)C(=O)CC[C@@H]12` [ONC0005400, npc01] the value was 89.74%; for `C[C@H]1CN(Cc2ccc(CC(=O)N3CCC(Nc4cccc(F)c4)CC3)cc2)CCN1` [ONC0001179, camicinal], 144.9%; for `C[C@](O)(COc1ccc(C#N)cc1)C(=O)Nc1ccc(C#N)c(C(F)(F)F)c1` [ONC0004736, mk2866 gtx024], 95.08%.
For `CC(=O)Nc1ccc(OC[C@](C)(O)C(=O)Nc2ccc([N+](=O)[O-])c(C(F)(F)F)c2)cc1` [ONC0004917, andarine gtx007], the “% viability” value (m. mycetomatis hyphae) is on record as 124.1%.
Consider `COc1ccc2c3c([nH]c2c1)[C@H](CC(C)C)N1C(=O)[C@H](CCC(=O)OC(C)(C)C)NC(=O)[C@@H]1C3` [ONC0001315, ko 143], for which the “% viability” value (m. mycetomatis hyphae) came out at 71.5%.
On to `COc1cc(OC)c(/C=C/S(=O)(=O)Cc2ccc(OC)c(OP(=O)(O)O)c2)c(OC)c1` [ONC0002087, briciclib], for which, under “m. mycetomatis hyphae”, the “% viability” value is 78.31%.
For `N#CN1CCCC1` [ONC0002979, pyrrolidine1carbonitrile], the “% viability” value (m. mycetomatis hyphae) was 75.45%.
Consider `CC(N)Cc1c[nH]c2ccc(O)cc12` (centres unmarked) [ONC0001623, alphamethylserotonin], for which the “% viability” value (m. mycetomatis hyphae) came to 78.58%.
On the same count and under the same terms, for `COc1cc2c(cc1OC)[C@@]13CCN4CC5=CCO[C@H]6CC(=O)N2[C@H]1[C@H]6[C@H]5C[C@H]43` [ONC0003202, brucine] the value was 95.04%; for `CC(C)(C)NCC(O)c1cc(Cl)c(N)c(Cl)c1` (centres unmarked) [ONC0002379, clenbuterol hydrochloride], 74.45%.
`COC(=O)C1=CCCN(C)C1` [ONC0000647, arecoline hydrobromide]: the “% viability” value (m. mycetomatis hyphae) was 79.19%.
On to `CC(CN)CC(=O)O` (centres unmarked) [ONC0000097, 3methylgaba], for which the “% viability” value (m. mycetomatis hyphae) amounted to 107.5%.
The same measure, in the same setting: for `Cc1ccccc1CN1C(=O)C2=C(CCN(Cc3ccccc3)C2)N2CCN=C12` [ONC0003867, onc201] the value was 81.96%.
As for `C=C1C(=O)O[C@@H]2[C@H]3C(C)=CC[C@@]34O[C@@]4(C)CC[C@@H]12` [ONC0001228, arglabin], the “% viability” value (m. mycetomatis hyphae) amounted to 103.5%.
As for `FC(F)OC(F)(F)C(F)Cl` (centres unmarked) [ONC0002958, enflurane], the “% viability” value (m. mycetomatis hyphae) was found to be 111.8%.
For the compound `CCC1(CC)C(=O)C=CNC1=O` [ONC0002888, pyrithyldione], the “% viability” value (m. mycetomatis hyphae) is 105.3%.
`C[C@]12CCC(=O)C=C1CCC1C2CC[C@@]2(C)C1CC[C@@H]2O` (some centres unmarked) [ONC0003315, testosterone]: the “% viability” value (m. mycetomatis hyphae) is 85.5%.
`C=CCN1CC[C@@]2(C)c3cc(O)ccc3C[C@H]1[C@H]2C` [ONC0000854, skf10047]: where the note is “m. mycetomatis hyphae”, the “% viability” value was determined as 56.88%.
Still for that read-out and setting: the value for `Clc1ccc(CO/N=C(\Cn2ccnc2)c2ccc(Cl)cc2Cl)c(Cl)c1` [Oxiconazole nitrate] was 0.8852%.
Still for that read-out and setting: for `NCCc1cc(O)c(O)cc1O` [ONC0000567, oxidopamine hydrochloride] the value was 71.43%.
For the compound `Clc1cccc(N2CCNCC2)c1` [ONC0001948, 13chlorophenylpiperazinehcl], the “% viability” value (m. mycetomatis hyphae) was found to be 73.05%.
The same measure, in the same setting: for `CC[N+](CC)(CCCNC1=CC(=O)C(NCCC[N+](CC)(CC)Cc2ccccc2)=CC1=O)Cc1ccccc1` [ONC0001930, benzoquinoniumdibromide] the value was 91.76%; for `O=P(O)(NCCCl)NCCCl` [ONC0001217, palifosfamide], 150.6%.
In the case of `C[C@H]1CCC/C=C/[C@@H]2C[C@H](O)C[C@H]2[C@H](O)/C=C/C(=O)O1` [ONC0000753, brefeldina], the “% viability” value under setting [1] came to 102%.
Consider `CCOC(=O)c1c(/C(C#N)=C\N)c2ccc(Cl)c(Cl)c2n1C` [ONC0001155, khcb19], for which the “% viability” value (m. mycetomatis hyphae) is recorded as 95.74%.
Regarding `C[C@]12CCC(=O)C[C@@H]1CC[C@@H]1[C@@H]2CC[C@]2(C)[C@@H](O)CC[C@@H]12` [ONC0001905, dihydrotestosterone], the “% viability” value (m. mycetomatis hyphae) is given as 67.61%.
For the compound `COc1ccc(CCN)cc1OC` [ONC0002315, homoveratrylamine], where the note is “m. mycetomatis hyphae”, the “% viability” value amounted to 62.69%.
`Oc1ccc2c3c1O[C@H]1c4[nH]c5c(c4C[C@@]4(O)[C@@H](C2)N(CC2CC2)CC[C@]314)C[C@@]1(O)[C@H]2Cc3ccc(O)c4c3[C@@]1(CCN2CC1CC1)[C@H]5O4` [ONC0002653, norbinaltorphiminedihydrochloride]: the “% viability” value (m. mycetomatis hyphae) is listed as 66%.
`C[C@@H]([C@H](O)c1ccccc1)N(C)C` [ONC0005359, nmethyl ephedrine 1r2s]: the “% viability” value (m. mycetomatis hyphae) was determined as 56.78%.
Still for that read-out and setting: for `CC(=O)Nc1ccc(Cc2ccc(NC(C)=O)cc2)cc1` [ONC0005081, fh1brdk4477] the value was 82.01%; for `O=C1NC(=S)NC(=O)C1C(=O)Nc1ccccc1` [ONC0002959, merbarone], 104.2%.
On the same count and under the same terms, the value for `Cc1[nH]c2ccc(O)cc2c1CCN` [ONC0000021, 2methyl5hydroxytryptamine] was 80.31%.
Same read-out and setting: for `O=Cc1cn(Cc2ccc(Cl)cc2)c2ccccc12` [ONC0001687, oncrasin1] the value was 52.5%; for `CCOC(=O)Nc1ccc(NCc2c(C)cc(C)cc2C)cc1N` [ONC0001805, aa29504], 96.37%; for `CC12CC(C=O)C(=O)CC1CCC1C2CCC2(C)C1CCC2(C)O` (centres unmarked) [ONC0004581, oxymetholone], 89.09%.
Take `CCC[C@@H]1CC(=O)N([C@@H](CC)C(N)=O)C1` [ONC0001158, brivaracetam]: the “% viability” value (m. mycetomatis hyphae) amounted to 114.4%.
Consider `CCN1C[C@]2(OC(=O)c3ccccc3NC(C)=O)CC[C@@H](OC)[C@]34C1[C@@H](C[C@H]23)[C@@]1(O)C[C@H](OC)[C@H]2C[C@H]4[C@]1(O)[C@H]2OC` [ONC0004594, lappaconite hydrobromide], for which, for the setting “m. mycetomatis hyphae”, the “% viability” value turned out to be 89.13%.
Take `CO[C@H]1CC=C2CCN3CCC4=C(CC(=O)OC4)[C@]23C1` [ONC0001996, dihydroerythroidinehbr]: the “% viability” value (m. mycetomatis hyphae) came out at 88.39%.
In the case of `CC(=O)N(C)c1cc(-c2ccnc3c(C(=O)c4cccs4)cnn23)ccc1F` [ONC0001266, lorediplon], the “% viability” value (m. mycetomatis hyphae) was determined as 68.29%.
Consider `NC(=O)C[S@@+]([O-])C(c1ccccc1)c1ccccc1` [ONC0003958, armodafinil], for which the “% viability” value (m. mycetomatis hyphae) is on record as 72.8%.
Consider `O=C(Nc1ccccc1F)N[C@H]1N=C(c2ccccc2)c2ccccc2NC1=O` [ONC0000966, rsv604], for which, under “m. mycetomatis hyphae”, the “% viability” value is reported as 70.36%.
On to `CC(=O)[C@H]1CC[C@H]2[C@@H]3CCC4C[C@](C)(O)CC[C@]4(C)[C@H]3CC[C@]12C` (some centres unmarked) [ONC0003017, ganaxolone], for which the “% viability” value (m. mycetomatis hyphae) came to 117.2%.
Still for that read-out and setting: the value for `C[N+](C)(C)CC#CCN1CCCC1=O` [ONC0001461, oxotremorinem] was 65.68%; that for `O=C1C=C2C=C[C@@H]3C[C@@]2(O1)[C@H]1CCCCN31` [ONC0004197, securinine] was 79.41%; that for `CC(=O)C1=C(O)[C@@H]2[C@H]3c4c[nH]c5cccc(c45)C[C@H]3C(C)(C)N2C1=O` [ONC0000252, cyclopiazonicacid] was 66.61%.
Regarding `CN1CCC(c2c[nH]c3ccc(O)cc23)CC1` [ONC0001612, brl54443], the “% viability” value (m. mycetomatis hyphae) is on record as 78.58%.
